Chains of the proteins cited; added tags and fusions are not shown. Residues count along the entry.
UniProt P38646, 47-679: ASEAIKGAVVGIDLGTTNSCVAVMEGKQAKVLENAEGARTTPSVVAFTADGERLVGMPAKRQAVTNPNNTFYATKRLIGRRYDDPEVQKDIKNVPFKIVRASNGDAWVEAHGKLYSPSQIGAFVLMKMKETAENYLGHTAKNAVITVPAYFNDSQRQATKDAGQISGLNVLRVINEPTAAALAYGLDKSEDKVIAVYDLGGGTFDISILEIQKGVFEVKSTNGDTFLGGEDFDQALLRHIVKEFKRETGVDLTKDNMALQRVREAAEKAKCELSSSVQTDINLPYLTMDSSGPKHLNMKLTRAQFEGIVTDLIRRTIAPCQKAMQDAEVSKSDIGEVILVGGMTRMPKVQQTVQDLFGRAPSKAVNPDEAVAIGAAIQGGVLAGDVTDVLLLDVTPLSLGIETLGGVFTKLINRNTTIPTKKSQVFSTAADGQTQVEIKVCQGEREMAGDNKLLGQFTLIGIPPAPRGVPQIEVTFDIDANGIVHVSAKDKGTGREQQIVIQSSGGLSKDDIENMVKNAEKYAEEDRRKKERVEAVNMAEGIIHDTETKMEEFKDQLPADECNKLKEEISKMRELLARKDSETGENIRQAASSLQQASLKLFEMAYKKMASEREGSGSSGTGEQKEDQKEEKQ
UniProt P07766, 23-126: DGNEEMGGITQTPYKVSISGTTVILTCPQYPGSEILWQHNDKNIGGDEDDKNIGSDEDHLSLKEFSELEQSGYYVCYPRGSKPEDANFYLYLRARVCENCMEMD
UniProt P08670, 2-466: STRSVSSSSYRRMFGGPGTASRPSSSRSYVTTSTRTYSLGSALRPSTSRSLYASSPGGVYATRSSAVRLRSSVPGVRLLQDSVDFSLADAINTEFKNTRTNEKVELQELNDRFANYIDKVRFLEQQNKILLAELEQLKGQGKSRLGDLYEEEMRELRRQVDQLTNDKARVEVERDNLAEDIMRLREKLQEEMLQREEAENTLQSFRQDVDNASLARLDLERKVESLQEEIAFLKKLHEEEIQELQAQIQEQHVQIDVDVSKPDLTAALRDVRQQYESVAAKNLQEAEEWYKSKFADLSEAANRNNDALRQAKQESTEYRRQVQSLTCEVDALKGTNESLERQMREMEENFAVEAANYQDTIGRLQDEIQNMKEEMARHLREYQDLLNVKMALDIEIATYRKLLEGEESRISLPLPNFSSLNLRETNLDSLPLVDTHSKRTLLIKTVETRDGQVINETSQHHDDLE

According to patent publication US11219635:

Tests used:
[1] = target: mHSP70 (mortalin), PANC-1 cell surface (Homo sapiens) (UniProt P38646); assay: activity in cells; conditions: 2'-F C and U; 2'-OMe A and G in sticky ends; C3 spacers (7 in tP19 strand, 5 in CCR5 strand); up to 80% PANC-1 lysis with CD8 T cells, E:T 20:1, 500 nM, 8 h; protein on the cell surface
[2] = target: CD3 epsilon (recombinant) (Homo sapiens) (UniProt P07766); assay: SELEX; conditions: 2'-F C and U; 5 rounds against His-tagged hCD3e, 5 mM MgCl2; purified recombinant protein; protein details: His tag, Creative Biomart; label: Cy3
[3] = target: Vimentin (plasma membrane, PANC-1 cells) (Homo sapiens) (UniProt P08670); assay: competition with a labelled probe; conditions: 2'-F C and U; 1 uM anti-vimentin antibody significantly reduced P15 (200 nM) binding to cells, P<0.05; protein on the cell surface; label: Cy3 or 3'-biotin
[4] = target: Vimentin (PANC-1 membrane extract) (Homo sapiens) (UniProt P08670); assay: pull-down; conditions: 2'-F C and U; biotinylated aptamer on streptavidin beads, band identified as vimentin by LC-MS/MS; protein in an extract; label: Cy3 or 3'-biotin
[5] = target: CD3 epsilon (EGFP fusion, stable HEK293) (Homo sapiens) (UniProt P07766); assay: binding assay; conditions: 2'-F C and U; live-cell confocal; 30 mM Tris-HCl pH 7.5, 150 mM NaCl, 5 mM MgCl2; protein on the cell surface; protein details: EGFP fusion, full-length; label: Cy3
[6] = target: CD3 epsilon (primary human T cells) (Homo sapiens) (UniProt P07766); assay: flow cytometry; conditions: 2'-F C and U; 500 nM aptamer on fresh human T cells, on ice; histogram shift; protein on the cell surface; label: Cy3

“CUCAAUGGCGAAUGCCCGCCUAAUAGGGAGUUUUUUACAUUUUG / GGGAGGACGAUGCGGGCCUUCGUUUGUUUCGUCCACAGACGACUCGCCCGACAAAAUGUAAAAAACU [tP19-CCR5 bi-specific aptamer]” showed a functional effect of the aptamer (% specific lysis) [1] of 80.

With “GGAGACAAGAAUAAACGCUCAAAUAGAAGCAGCAUCUUCCAAAUCAGUUUGUGUGUCCUCUAUUCGACAGGAGGCUCACAACAGGC [C3e2]” the selection result [2] was “selected”.

“GGGAGACAAGAAUAAACGCUCAAAGUUGCGGCCCAACCGUUUAAUUCAGAAUAGUGUGAUGCCUUCGACAGGAGGCUCACAACAGGC [P15]”: binds [3]; binds [4].

For “GGGAGACAAGAAUAAACGCUCAAAUGCCUGUAGUUCGUAGCGAUUUAACUGCGUCAGUGAGGCUUCGACAGGAGGCUCACAACAGGC [C3e3]”, the binding result [5] was “binds”, the binding result [6] was “binds” and the selection result [2] was “selected”.

For some of these results: Results from cells or extracts need not show a direct contact. For some of these results: Construct, isoform or probe ends are uncertain for at least one entry.
